{"source": "patent US9932637B2", "about": "“Genetic polymorphisms associated with cardiovascular disorders and drug response, methods of detection and uses thereof” (CELERA CORPORATION, priority 2003, dated 2018)", "tested_on": "patients with prior myocardial infarction (CARE study)", "experiment": "CARE aligned analysis (prospective and case/control design, white males): association of genotypes with pravastatin efficacy (Tables 13, 15)", "format": "in vivo, human", "details": "0 Rare Alleles, F&NF MI, All Possible controls, WM", "protocol": "The data presented in Table 8 based on an association of genotypes with pravastatin efficacy of the CARE samples were further analyzed and presented in Table 13. The further analysis was performed to align the data obtained from the analysis of the CARE samples, which was a prospective study, to the analysis of the WOSCOP samples, which was a case/control study. Table 13 also presents an analysis of the association of genotypes with pravastatin efficacy in the WOSCOPs samples. Relative to the analysis performed on the data presented in Table 8, there are two significant differences to determine if the SNP influenced pravastatin efficacy. Data obtained from the CARE samples were separated by study design into two groups, those in the prospective study design group and those in the case/control study design group. The original care study contained 16 protocol defined cardiovascular disease defined endpoints and 150 other phenotypes. […] The control groups used to compare the data were also divided into two groups, the “all possible” control group and the “cleaner” control group. […] Because the participants in the WOSCOPs trial were all white males, only data obtained from white males in the CARE study were analysed. Data from the “all possible” and “cleaner” controls were compared to data obtained from the cases in the prospective study design while only data from “cleaner” controls were compared to cases in the case/control study design. The data from the case/control cohorts were analysed using conditional logistic regression (as opposed to logistic regression used for the original anaylsis).\nThe anaylsis was refined as described for both Tables 13 and 14.", "note": "For at least one compound, name, drawing or mass did not settle the structure."}
{"smiles": "CC[C@H](C)C(=O)O[C@H]1C[C@H](O)C=C2C=C[C@H](C)[C@H](CC[C@@H](O)C[C@@H](O)CC(=O)O)[C@H]21", "note": "[pravastatin]", "values": [{"measurement": "Pravastatin Patients n/total", "setting": "ITGA4 hCV7618856, CARE Case/Control", "result": "120/1183"}, {"measurement": "Pravastatin Patients n/total", "setting": "ITGA4 hCV7618856, CARE Prospective", "result": "120/1204"}, {"measurement": "Pravastatin Patients n/total", "setting": "MYH7 hCV25629396, CARE Case/Control", "result": "118/1178"}, {"measurement": "Pravastatin Patients n/total", "setting": "MYH7 hCV25629396, CARE Prospective", "result": "118/1200"}, {"measurement": "Pravastatin Patients n/total", "setting": "PPOX hCV25922816, CARE Case/Control", "result": "116/1020"}, {"measurement": "Pravastatin Patients n/total", "setting": "PPOX hCV25922816, CARE Prospective", "result": "116/1036"}]}
